This passage reports binding results from paper PMC10323252.

Chains of the proteins cited; added tags and fusions are not shown. Lines headed by an entry give the natural chain unless they say otherwise; changes in a name come on top.
UniProt P05556: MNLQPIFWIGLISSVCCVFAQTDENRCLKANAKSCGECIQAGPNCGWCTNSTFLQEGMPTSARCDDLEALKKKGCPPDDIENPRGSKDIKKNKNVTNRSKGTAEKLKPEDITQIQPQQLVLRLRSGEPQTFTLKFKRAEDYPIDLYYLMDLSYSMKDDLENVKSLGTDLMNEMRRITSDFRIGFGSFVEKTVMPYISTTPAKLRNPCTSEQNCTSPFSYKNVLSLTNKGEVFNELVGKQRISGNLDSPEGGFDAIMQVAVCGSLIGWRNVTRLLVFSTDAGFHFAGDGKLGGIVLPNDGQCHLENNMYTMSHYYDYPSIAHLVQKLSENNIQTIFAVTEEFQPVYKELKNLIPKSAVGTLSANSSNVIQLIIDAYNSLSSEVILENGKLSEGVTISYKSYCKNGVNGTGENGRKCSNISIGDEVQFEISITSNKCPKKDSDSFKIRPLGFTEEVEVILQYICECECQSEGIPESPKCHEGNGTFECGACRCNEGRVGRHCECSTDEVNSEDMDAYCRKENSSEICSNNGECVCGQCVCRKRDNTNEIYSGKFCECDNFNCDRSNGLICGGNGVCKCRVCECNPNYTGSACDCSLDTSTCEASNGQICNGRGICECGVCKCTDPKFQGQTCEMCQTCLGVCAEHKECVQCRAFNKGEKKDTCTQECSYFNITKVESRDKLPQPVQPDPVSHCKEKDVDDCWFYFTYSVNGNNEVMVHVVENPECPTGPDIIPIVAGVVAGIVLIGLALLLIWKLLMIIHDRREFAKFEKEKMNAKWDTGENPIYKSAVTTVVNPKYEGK

The target of this test is GST–β1 integrin cytoplasmic tail truncations (UniProt P05556). Put plainly: pull-down; GST-β1 integrin cytoplasmic tail truncations on glutathione-agarose beads, incubated with His-Rab25 loaded with GTPγS for 2 h at 4°C; SDS-PAGE, Coomassie Blue staining or western blotting; both purified.

No constants are given. Whether binding was seen depends on the method and setting. Binding calls can cover weak binding; strength is not graded here. Tags and fused reporters may be left off the sequences shown.

B1: His–Rab25 GTPγS (protein, UniProt P57735 1-213)
chain: MGNGTEEDYNFVFKVVLIGESGVGKTNLLSRFTRNEFSHDSRTTIGVEFSTRTVMLGTAAVKAQIWDTAGLERYRAITSAYYRGAVGALLVFDLTKHQTYAVVERWLKELYDHAEATIVVMLVGNKSDLSQAREVPTEEARMFAENNGLLFLETSALDSTNVELAFETVLKEIFAKVSKQRQNSIRTNAITLGSAQAGQEPGPGEKRACCISL
In the case of B1, the binding result is listed as “binds”.
